Measurements published in patent US20180085400A1.
Results are given in words; binding and its absence hold for the method and conditions named. Some results given as binding are weak or reduced against the parent protein; the word gives no strength.

T1: human MICA protein (human) (UniProt Q29983)
T1 sequence (looked up): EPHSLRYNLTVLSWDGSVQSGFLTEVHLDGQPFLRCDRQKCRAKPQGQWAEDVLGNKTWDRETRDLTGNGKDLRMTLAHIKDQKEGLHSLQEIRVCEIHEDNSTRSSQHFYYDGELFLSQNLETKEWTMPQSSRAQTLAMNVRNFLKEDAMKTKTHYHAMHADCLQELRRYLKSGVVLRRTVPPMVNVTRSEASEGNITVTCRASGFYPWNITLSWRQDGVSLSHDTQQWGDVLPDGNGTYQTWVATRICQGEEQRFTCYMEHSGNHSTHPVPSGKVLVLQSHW

B1: B2 scFv (scFv)
scFv: QVQLQQSGPGLVKPSQTLSLTCAISGDSVSSNSAAWNWIRQSPSRGLEWLGRTYYRSKWYNDYAVSVKSRITINPDTSTNQFSLQLNSVTPDDTAVYYCAREGAHEWADAFDIWGQGTMVTVSSGILGSGGGGSGGGGSGGGGSDIQLTQSPSSLSASVGDRVTITCQASQDISNYLNWYQQKPGKAPKLLIYDASNLETGVPPRFSGSGSGTAFTFTISSLQPEDFATYYCQQYDNLPHTFGPGTKVDIKS
B2: C11 scFv (scFv)
scFv: EVQLVESGGGLVQPGKSLKLSCEASGFTFSGYGMHWVRQAPGRGLESVAYITSSSINIKYADAVKGRFTVSRDNAKNLLFLQMNILKSEDTAMYYCARFDWDKNYWGQGTMVTVSSAGGGGSGGGGSGGGGSEFDIQMTQSPSSLPASLGDRVTINCQASQDISNYLNWYQQKPGKAPKLLIYYTNKLADGVPSRFSGSGSGRDSSFTISSLESEDIGSYYCQQYYNYPWTFGPGTKLEIKR
B3: C25 scFv (scFv)
scFv: QVQLQQSGPGLVKPSQTLSLTCAISGDSVSSNRGAWNWIRQSPSRGLEWLGRTYYRSRWINDYAVSVKSRITVNPDTSKNQFSLQLNSVTPEDTAVYYCARGQQERYDPWGQGTLVTVSSGSASAPTGILGSGGGGSGGGGSGGGGSSYVLTQPPSASGTPGQRVTISCSGSSSNIGRKGVYWFQQLPGTAPKVLIYGNNQRRSGVPDRFSGSRSGTSGSLAISGLRSEDEADYYCAAWDDSLNGPVFGGGTQLTVLS
B4: C8 scFv (scFv)
scFv: EVQLMESGGGVVQPGGSLRLSCAGSGFTVSSNFMSWVRQAPGKGLEWVSLIYSDGSGGNTYYADSVKGRFTVSRDNSKNTLYLQMNSLREEDTALYYCARVSRRRSGRLFDLWGRGTLVTVSSGILGSGGGGSGGGGSGGGGSQSALTQPPSASGSPGQSVTISCTGTSSDVGGSNYVSWYQQHPGKVPKLIIYEVSKRPSGVPDRFSGSKSGNTASLTVSGLQAEDEADYYCSSYAGGKKVFGGGTKLTVLS

molecular target: T1, human MICA protein (human); assay: selection from a non-immune human scFv yeast display library (MACS and flow cytometric sorting)

| Binder | binding |
| --- | --- |
| B1 | binds |
| B2 | binds |
| B3 | binds |
| B4 | binds |
